According to patent US20200297015A1, “TRYPTOPHAN DERIVATIVES AS SWEETENERS” (CHROMOCELL CORPORATION, priority 2017, published 2020):

System: perception of sweet taste in humans
Test: Descriptive Analysis (DA) sensory evaluation by trained panel, aqueous matrix
Format: in vivo, human
Conditions: 1500 ppm Compound 5 vs 500 ppm Rebaudioside M
Experimental: The effect of the test compound on the perception of sweet taste in an aqueous matrix was evaluated using a descriptive analysis methodology with a group of trained panelists, as follows.
Preparation of Samples for Sensory Taste Tests: • Control Sample: 500 ppm Rebaudioside M • Variant Sample: 1500 ppm Compound 5 Samples for the descriptive analysis taste test were prepared by dissolving, both the control and variant samples, directly in water at the desired test concentrations.
The taste test panelists used in Example I were selected using a sensory acuity screening program and then trained in descriptive analysis taste testing. Candidate panelists were recruited, with prescreening and personal interviews, and were assessed for their ability to detect, recognize and differentiate basic taste attributes or mixtures thereof as part of a standardized acuity test. These candidate panelists were also assessed for their innate ability to identify flavors, and to rank on intensity scales. Other senses such as smell and vision were also included as part of the assessment. Candidates also were screened for their ability to use the language to describe and articulate ideas.
The method was performed as a double blinded, randomized test, where trained Descriptive Analysis taste panelists (n≥12) profiled the maximum intensity perceived at 18 seconds, of the control sample and the variant sample for the following 3 attributes; sweet, bitter and sweet appearance time. In addition to the maximum intensity, the panelists continued to assess sweet and bitter intensity (at 1 min, 1.5 min, 2 min, and 3 min), to generate a discontinuous time scale Intensity profile (TSI) of sweet and bitter percepts to gain an understanding of the taste profile of the control and variant samples. Each panelist scored sweetness intensity on a 15 cm scale, with the control and variant sample being determined to be iso-sweet by ANOVA at 18 seconds.

SMILES: Cc1ccc2[nH]cc(C[C@@H](N)C(=O)O)c2c1 [Compound 5, (R)-2-amino-3-(5-methyl-1H-indol-3-yl)propanoic acid]
- Significantly Different? (by ANOVA) (Bitter @ 18 sec): YES (bitter
- Significantly Different? (by ANOVA) (Bitter @ 1 min 30 s): YES (bitter linger
- Significantly Different? (by ANOVA) (Bitter @ 1 min): YES (bitter linger
- Significantly Different? (by ANOVA) (Bitter @2 min): YES (bitter linger
- Significantly Different? (by ANOVA) (Bitter @3 min): YES (bitter linger
- Significantly Different? (by ANOVA) (Sweet @ 18 sec): NO (isosweet)
- Significantly Different? (by ANOVA) (Sweet @ 1 min 30 s): YES (sweet linger
- Significantly Different? (by ANOVA) (Sweet @ 1 min): YES (sweet linger
- Significantly Different? (by ANOVA) (Sweet @ 2 min): NO (lower intensity)
- Significantly Different? (by ANOVA) (Sweet AT): YES (sweet AT
